Structures can show the parent of a compound that is named as a salt. Some of the results follow. Most values come without repeats; read them as rough.
Key:
Assay in all cases: reduction in cell viability relative to untreated/vehicle; higher = more growth inhibition
Conditions in all cases: 200 nM; 72 h
[1] = test system: M229P (parental melanoma line)
[2] = test system: M229R (matched melanoma line resistant to BRAF inhibitors)
[3] = test system: M238P (parental melanoma line)
[4] = test system: M238R (matched melanoma line resistant to BRAF inhibitors)
[5] = test system: M249P (parental melanoma line)
[6] = test system: M249R (matched melanoma line resistant to BRAF inhibitors)
[7] = test system: UACC62P (parental melanoma line)
[8] = test system: UACC62R (matched melanoma line resistant to BRAF inhibitors)

Compound | reduction in cell viability [1] [%] | reduction in cell viability [2] [%] | reduction in cell viability [3] [%] | reduction in cell viability [4] [%] | reduction in cell viability [5] [%] | reduction in cell viability [6] [%] | reduction in cell viability [7] [%] | reduction in cell viability [8] [%]
CCOc1cc(N)c(Cl)cc1C(=O)NCC1CN(Cc2ccc(F)cc2)CCO1 (stereo not drawn) [Mosapride citrate] | < 0 | < 0 | < 0 | < 0 | < 0 | < 0 | < 0 | < 0
CC(N)C12CC3CC(CC(C3)C1)C2 (stereo not drawn) [Rimantadine] | < 0 | < 0 | < 0 | < 0 | < 0 | < 0 | < 0 | < 0
Cc1ccc(C(=O)Nc2cccc(C(F)(F)F)c2)cc1Nc1nc(-c2cccnc2)nc2c1cnn2C | < 0 | < 0 | < 0 | < 0 | < 0 | < 0 | 17.2 | < 0
Nc1nc(NCCNc2ncc(-n3ccnc3)c(-c3ccc(Cl)cc3Cl)n2)ccc1[N+](=O)[O-] | < 0 | < 0 | < 0 | < 0 | < 0 | 5.83 | < 0 | < 0
CC(C)(N)C(=O)N[C@H](COCc1ccccc1)C(=O)N1CCC2(CC1)CN(S(C)(=O)=O)c1ccccc12 [Ibutamoren mesilate] | < 0 | < 0 | < 0 | < 0 | < 0 | < 0 | < 0 | < 0
Nc1ccccc1NC(=O)c1ccc(CNC(=O)OCc2cccnc2)cc1 [Entinostat] | < 0 | < 0 | 7.41 | < 0 | < 0 | 0.04 | < 0 | 2.83
CN(C)CC(=O)N1CCC(c2ccc(NC(=O)c3ncc(C#N)[nH]3)c(C3=CCCCC3)c2)CC1 | < 0 | < 0 | < 0 | < 0 | < 0 | < 0 | < 0 | < 0
O=C(O)CCn1c2c(c3ccccc31)C[C@H](NS(=O)(=O)c1ccc(F)cc1)CC2 [Ramatroban] | < 0 | < 0 | < 0 | < 0 | < 0 | < 0 | < 0 | < 0
COC(=O)Nc1nc2cc(C(=O)c3cccs3)ccc2[nH]1 [Nocodazole] | 38.1 | 31.7 | 63.1 | 60.6 | 61 | 52.9 | 60 | 75.6
NC(=O)c1c(OCc2c(F)cc(Br)cc2F)nsc1NC(=O)NCCCCN1CCCC1 | < 0 | < 0 | < 0 | < 0 | < 0 | 14.3 | < 0 | < 0
Cn1cc(C[C@@H](N)C(=O)O)c2ccccc21 [Indoximod] | < 0 | < 0 | < 0 | < 0 | < 0 | < 0 | < 0 | < 0
Cc1oncc1C(=O)Nc1ccc(C(F)(F)F)cc1 [Leflunomide] | < 0 | < 0 | < 0 | < 0 | < 0 | < 0 | 14.8 | < 0
COc1ccc(-c2cc3nccn3c(Nc3ncccc3C(N)=O)n2)cc1OC | < 0 | < 0 | < 0 | < 0 | < 0 | < 0 | 5.78 | < 0
Cn1c(CNc2ccc(C(=N)N)cc2)nc2cc(C(=O)N(CCC(=O)O)c3ccccn3)ccc21 [Dabigatran] | < 0 | < 0 | < 0 | < 0 | < 0 | < 0 | < 0 | < 0
COc1ccc(C[C@@H]2c3cc(OC)c(OC)cc3CC[N@+]2(C)CCC(=O)OCCCCCOC(=O)CC[N@@+]2(C)CCc3cc(OC)c(OC)cc3[C@H]2Cc2ccc(OC)c(OC)c2)cc1OC [Cisatracurium besylate] | < 0 | < 0 | < 0 | < 0 | < 0 | < 0 | < 0 | < 0
CC(C)OC(=O)OCOP(=O)(CO[C@H](C)Cn1cnc2c(N)ncnc21)OCOC(=O)OC(C)C [Tenofovir disoproxil fumarate] | < 0 | < 0 | < 0 | < 0 | < 0 | < 0 | < 0 | < 0
O=c1cc(N2CCOCC2)oc2c(-c3ccccc3)cccc12 | < 0 | < 0 | < 0 | < 0 | < 0 | < 0 | < 0 | < 0
CC(C)CC(=O)N[C@H](C(=O)N[C@H](C(=O)N[C@@H](CC(C)C)[C@@H](O)CC(=O)N[C@@H](C)C(=O)N[C@@H](CC(C)C)[C@@H](O)CC(=O)O)C(C)C)C(C)C [Pepstatin] | < 0 | < 0 | < 0 | 37.3 | < 0 | < 0 | 2.5 | < 0
CC(C)(C)C#Cc1cc(N(C(=O)[C@H]2CC[C@H](C)CC2)[C@H]2CC[C@H](O)CC2)c(C(=O)O)s1 [Lomibuvir] | < 0 | < 0 | < 0 | < 0 | < 0 | < 0 | < 0 | < 0
C[C@H]1COC2=C1C(=O)C(=O)c1c2ccc2c1CCCC2(C)C [Cryptotanshinone] | < 0 | < 0 | < 0 | < 0 | < 0 | < 0 | < 0 | < 0
COc1ccc(C(=O)CC2(O)C(=O)Nc3c(Cl)ccc(Cl)c32)cc1 (stereo not drawn) | < 0 | 16.9 | < 0 | < 0 | < 0 | < 0 | < 0 | 3

Whole records from above. Values in the order: reduction in cell viability [1] [%] | reduction in cell viability [2] [%] | reduction in cell viability [3] [%] | reduction in cell viability [4] [%] | reduction in cell viability [5] [%] | reduction in cell viability [6] [%] | reduction in cell viability [7] [%] | reduction in cell viability [8] [%]
Cn1c(CNc2ccc(C(=N)N)cc2)nc2cc(C(=O)N(CCC(=O)O)c3ccccn3)ccc21 [Dabigatran] as listed: < 0 | < 0 | < 0 | < 0 | < 0 | < 0 | < 0 | < 0
CC(C)(C)C#Cc1cc(N(C(=O)[C@H]2CC[C@H](C)CC2)[C@H]2CC[C@H](O)CC2)c(C(=O)O)s1 [Lomibuvir] as listed: < 0 | < 0 | < 0 | < 0 | < 0 | < 0 | < 0 | < 0

(more compounds)

Compound | reduction in cell viability [1] [%] | reduction in cell viability [2] [%] | reduction in cell viability [3] [%] | reduction in cell viability [4] [%] | reduction in cell viability [5] [%] | reduction in cell viability [6] [%] | reduction in cell viability [7] [%] | reduction in cell viability [8] [%]
O=C(c1ccc(/C=C/c2n[nH]c3ccccc23)cc1)N1CCNCC1 | < 0 | < 0 | < 0 | < 0 | < 0 | < 0 | < 0 | < 0
CC(C)(C#N)c1cc(Cn2cncn2)cc(C(C)(C)C#N)c1 [Anastrozole] | < 0 | < 0 | < 0 | < 0 | < 0 | < 0 | < 0 | < 0
CCC(C)(C)C(=O)O[C@H]1C[C@@H](C)C=C2C=C[C@H](C)[C@H](CC[C@@H]3C[C@@H](O)CC(=O)O3)[C@H]21 [Simvastatin] | < 0 | < 0 | 0.17 | < 0 | < 0 | < 0 | < 0 | < 0
C[C@@](Cc1ccc(O)c(O)c1)(NN)C(=O)O [Carbidopa] | < 0 | < 0 | < 0 | < 0 | 1.2 | < 0 | 6.05 | < 0
COc1cc(NS(=O)(=O)c2ccc(N)cc2)nc(OC)n1 [Sulphadimethoxine] | < 0 | < 0 | < 0 | < 0 | < 0 | < 0 | < 0 | < 0
CC(C)(C)c1nc(-c2cccc(NS(=O)(=O)c3c(F)cccc3F)c2F)c(-c2ccnc(N)n2)s1 [Dabrafenib] | 35.5 | < 0 | 49.6 | < 0 | 70.4 | < 0 | 62.8 | 23.8
COc1cc(C(C)C)c2c(c1)S(=O)(=O)N(COc1cc(=O)n3cccc(OCCN4CCCCC4)c3n1)C2=O | < 0 | < 0 | < 0 | < 0 | < 0 | < 0 | < 0 | < 0
O=c1cc(-c2ccccc2)oc2cc(O)cc(O)c12 [5,7-Dihydroxyflavone] | < 0 | < 0 | < 0 | < 0 | < 0 | < 0 | 8.6 | < 0
CCC(=O)OCC(=O)[C@@]1(OC(=O)CC)[C@@H](C)C[C@H]2[C@@H]3CCC4=CC(=O)C=C[C@]4(C)[C@@]3(F)[C@@H](O)C[C@@]21C [Betamethasone dipropionate] | < 0 | < 0 | < 0 | < 0 | < 0 | < 0 | 2.77 | < 0
CO[C@H]1/C=C/O[C@@]2(C)Oc3c(C)c(O)c4c(O)c(c(/C=N/N5CCN(C6CCCC6)CC5)c(O)c4c3C2=O)NC(=O)/C(C)=C\C=C\[C@H](C)[C@H](O)[C@@H](C)[C@@H](O)[C@@H](C)[C@H](OC(C)=O)[C@@H]1C [Rifapentine] | < 0 | < 0 | < 0 | < 0 | < 0 | 5.09 | 8.24 | < 0
NC1(c2ccc(-c3nc4ccn5c(=O)[nH]nc5c4cc3-c3ccccc3)cc2)CCC1 | < 0 | < 0 | 0.63 | < 0 | 19.6 | 1.78 | 17.7 | < 0
COc1ccc(-c2ccc3cc(C(=O)O)ccc3c2)cc1C12CC3CC(CC(C3)C1)C2 [Adapalene] | < 0 | < 0 | < 0 | < 0 | < 0 | < 0 | < 0 | < 0
Cc1cc2c(cc1C1(c3ccc(C(=O)O)cn3)CC1)C(C)(C)CCC2(C)C | < 0 | < 0 | < 0 | < 0 | < 0 | < 0 | < 0 | < 0
C[C@@H]1C(=O)O[C@H]2C[C@@]34[C@H]5C[C@@H](C(C)(C)C)[C@]36[C@@H](OC(=O)[C@@H]6O)O[C@@]4(C(=O)O5)[C@]21O [Ginkgolide A] | < 0 | < 0 | < 0 | < 0 | < 0 | < 0 | < 0 | < 0
CCS(=O)(=O)Nc1ccc2c(c1)/C(=C(/Nc1ccc(CN3CCCCC3)cc1)c1ccccc1)C(=O)N2 [Hesperadin] | 41.2 | 91.4 | 68.9 | 89.6 | 19.9 | < 0 | 54.4 | 63
O=C(O)CCc1ccc(NCc2cccc(Oc3ccccc3)c2)cc1 | < 0 | < 0 | < 0 | < 0 | < 0 | < 0 | < 0 | < 0
C=C(C)[C@@H]1CC[C@]2(C(=O)O)CC[C@]3(C)[C@H](CC[C@@H]4[C@@]5(C)CC[C@H](O)C(C)(C)[C@@H]5CC[C@]43C)[C@@H]12 [Betulinic acid] | < 0 | < 0 | < 0 | < 0 | < 0 | < 0 | < 0 | < 0
COC(=O)/C=C/C(=O)OC [Dimethyl fumarate] | < 0 | < 0 | < 0 | < 0 | < 0 | < 0 | < 0 | < 0
CN1CCN(c2c(F)cc3c(=O)c(C(=O)O)cn(CCF)c3c2F)CC1 [Fleroxacin] | < 0 | < 0 | < 0 | < 0 | < 0 | 6.17 | < 0 | < 0
NCc1c[nH]c(=S)n1[C@H]1CCc2c(F)cc(F)cc2C1 [Nepicastat hydrochloride] | < 0 | 3.73 | < 0 | < 0 | < 0 | < 0 | < 0 | < 0
